According to patent US20190234942A1:
These are yes or no findings as the source states them, for the method shown. For some assays here: Binding seen in cells or lysates may run through a third protein. Some results given as binding are weak or reduced against the parent protein; the word gives no strength. For some assays here: Tags and fused reporters may be left off the sequences shown.

Protein sequences, listed by entry. Tags and fused reporters are not part of them. Lines headed by an entry give the natural chain unless they say otherwise; changes in a name come on top.
UniProt O75140: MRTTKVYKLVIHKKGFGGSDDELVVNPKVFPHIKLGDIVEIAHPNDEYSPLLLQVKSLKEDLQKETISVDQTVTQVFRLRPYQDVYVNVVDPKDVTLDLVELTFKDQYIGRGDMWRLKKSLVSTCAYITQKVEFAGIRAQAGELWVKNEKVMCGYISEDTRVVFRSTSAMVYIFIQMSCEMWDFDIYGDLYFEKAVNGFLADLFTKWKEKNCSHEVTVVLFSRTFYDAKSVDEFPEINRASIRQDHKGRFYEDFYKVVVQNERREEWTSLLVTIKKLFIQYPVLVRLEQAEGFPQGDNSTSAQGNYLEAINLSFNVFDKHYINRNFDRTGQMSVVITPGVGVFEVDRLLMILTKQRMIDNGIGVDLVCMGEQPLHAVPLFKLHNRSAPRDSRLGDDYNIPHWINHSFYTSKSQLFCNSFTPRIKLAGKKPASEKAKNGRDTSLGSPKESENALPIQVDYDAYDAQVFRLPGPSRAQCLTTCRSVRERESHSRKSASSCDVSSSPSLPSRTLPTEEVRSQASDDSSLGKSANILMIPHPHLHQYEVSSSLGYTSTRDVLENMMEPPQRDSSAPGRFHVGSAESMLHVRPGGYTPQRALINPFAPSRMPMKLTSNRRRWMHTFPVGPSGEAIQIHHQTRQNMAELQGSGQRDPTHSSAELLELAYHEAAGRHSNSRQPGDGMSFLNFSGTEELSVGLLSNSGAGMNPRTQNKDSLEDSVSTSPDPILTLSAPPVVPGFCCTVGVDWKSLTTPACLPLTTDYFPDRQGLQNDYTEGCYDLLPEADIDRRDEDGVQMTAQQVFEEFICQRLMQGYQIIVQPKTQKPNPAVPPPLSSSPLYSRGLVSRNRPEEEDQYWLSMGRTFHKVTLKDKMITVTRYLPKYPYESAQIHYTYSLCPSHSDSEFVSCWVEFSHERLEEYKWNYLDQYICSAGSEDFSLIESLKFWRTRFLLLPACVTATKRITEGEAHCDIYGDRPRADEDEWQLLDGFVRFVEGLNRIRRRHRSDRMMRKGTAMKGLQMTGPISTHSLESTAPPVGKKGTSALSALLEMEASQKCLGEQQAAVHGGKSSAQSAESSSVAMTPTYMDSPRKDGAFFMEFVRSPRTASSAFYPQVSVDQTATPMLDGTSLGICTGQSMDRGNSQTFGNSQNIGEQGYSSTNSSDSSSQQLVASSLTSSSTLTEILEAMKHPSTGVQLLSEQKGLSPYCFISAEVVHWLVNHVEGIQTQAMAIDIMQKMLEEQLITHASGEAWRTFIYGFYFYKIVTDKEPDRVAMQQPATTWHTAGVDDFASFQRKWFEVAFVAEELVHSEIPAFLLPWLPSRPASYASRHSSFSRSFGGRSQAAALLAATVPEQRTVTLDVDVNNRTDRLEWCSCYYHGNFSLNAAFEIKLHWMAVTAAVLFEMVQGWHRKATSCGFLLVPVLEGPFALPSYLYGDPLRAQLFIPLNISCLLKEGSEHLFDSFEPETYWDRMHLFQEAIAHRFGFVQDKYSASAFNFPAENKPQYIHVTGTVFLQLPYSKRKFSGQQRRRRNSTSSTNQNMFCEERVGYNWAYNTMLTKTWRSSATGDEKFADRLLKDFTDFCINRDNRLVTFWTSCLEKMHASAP
UniProt Q9Y664: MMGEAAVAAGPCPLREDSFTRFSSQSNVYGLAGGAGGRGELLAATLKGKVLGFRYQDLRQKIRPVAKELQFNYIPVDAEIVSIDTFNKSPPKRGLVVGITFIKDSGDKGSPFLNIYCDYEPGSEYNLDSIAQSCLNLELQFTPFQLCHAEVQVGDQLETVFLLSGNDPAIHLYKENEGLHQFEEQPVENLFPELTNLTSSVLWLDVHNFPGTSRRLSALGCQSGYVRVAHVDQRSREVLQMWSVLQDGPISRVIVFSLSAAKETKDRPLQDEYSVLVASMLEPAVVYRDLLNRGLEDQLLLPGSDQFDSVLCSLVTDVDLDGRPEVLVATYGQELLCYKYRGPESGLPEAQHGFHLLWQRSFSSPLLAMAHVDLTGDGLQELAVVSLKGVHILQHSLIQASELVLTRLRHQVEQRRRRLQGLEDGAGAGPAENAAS

Legend:
[1] = target: GATOR1 complex (Depdc5, Npr13, Npr12) (UniProt O75140); test: anti-FLAG co-IP (endogenously FLAG-tagged Depdc5), immunoblot, FIG. 1A
[2] = target: GATOR1-KICSTOR supercomplex (UniProt O75140); test: in vitro dissociation assay on anti-FLAG (Depdc5) immunoprecipitates, immunoblot
[3] = target: GATOR1 complex (Depdc5, Npr13, Npr12) (UniProt O75140); test: anti-FLAG co-IP from HEK-293T cells with endogenously FLAG-tagged Depdc5, immunoblot for SAMTOR
[4] = target: GATOR1 complex (Depdc5, Npr13, Npr12) (UniProt O75140); test: in vitro dissociation assay: anti-FLAG IP of endogenous FLAG-Depdc5 from HEK-293T, SAM or SAH (0-300 µM) added to the immunoprecipitate, immunoblot for SAMTOR
[5] = target: GATOR1 complex (Depdc5, Npr13, Npr12) (UniProt O75140); test: in vitro dissociation assay on anti-FLAG (Depdc5) immunoprecipitates, immunoblot, FIG. 3C and 3D
[6] = target: KICSTOR complex (Kaptin, ITFG2, C12orf66, SZT2) (UniProt Q9Y664); test: co-immunoprecipitation: anti-FLAG IP from HEK-293T stably expressing FLAG-Kaptin, immunoblot for endogenous SAMTOR
[7] = target: KICSTOR complex (Kaptin, ITFG2, C12orf66, SZT2) (UniProt Q9Y664); test: anti-FLAG co-IP from HEK-293T cells stably expressing FLAG-Kaptin, immunoblot for SAMTOR
[8] = target: KICSTOR complex (Kaptin, ITFG2, C12orf66, SZT2) (UniProt Q9Y664); test: anti-FLAG co-IP (FLAG-Kaptin), immunoblot, FIG. 1A
[9] = target: GATOR1 complex (Depdc5, Npr13, Npr12) (UniProt O75140); test: co-immunoprecipitation: anti-FLAG IP from HEK-293T with endogenously FLAG-tagged Depdc5, immunoblot for endogenous SAMTOR
[10] = target: GATOR1 complex (Depdc5, Npr13, Npr12) (UniProt O75140); test: in vitro dissociation assay: anti-FLAG IP of endogenous FLAG-Depdc5 from HEK-293T, compounds added to the immunoprecipitate, immunoblot for SAMTOR
[11] = target: KICSTOR complex (Kaptin, ITFG2, C12orf66, SZT2) (UniProt Q9Y664); test: anti-FLAG co-IP from HEK-293T cells, immunoblot for SZT2
[12] = target: GATOR1 complex (Depdc5, Npr13, Npr12) (UniProt O75140); test: anti-FLAG co-IP from HEK-293T cells, immunoblot, FIG. 1B
[13] = target: KICSTOR complex (Kaptin, ITFG2, C12orf66, SZT2) (UniProt Q9Y664); test: as above
[14] = target: GATOR1 complex (Depdc5, Npr13, Npr12) (UniProt O75140); test: co-immunoprecipitation: anti-FLAG IP of transfected FLAG-SAMTOR from wild-type, sgNprl3, sgSZT2 or sgWDR24 HEK-293T, immunoblot for endogenous Nprl3
[15] = target: GATOR1-KICSTOR supercomplex (UniProt O75140); test: anti-FLAG co-IP from wild-type and component-deficient HEK-293T cells
[16] = target: KICSTOR complex (Kaptin, ITFG2, C12orf66, SZT2) (UniProt Q9Y664); test: co-immunoprecipitation: anti-FLAG IP of transfected FLAG-SAMTOR from wild-type, sgNprl3, sgSZT2 or sgWDR24 HEK-293T, immunoblot for endogenous SZT2
[17] = target: GATOR1 complex (Depdc5, Npr13, Npr12) (UniProt O75140); test: anti-FLAG co-IP from HEK-293T cells, immunoblot for Npr13
[18] = target: GATOR1 complex (Depdc5, Npr13, Npr12) (UniProt O75140); test: anti-HA co-IP from HEK-293T cells, immunoblot
[19] = target: KICSTOR complex (Kaptin, ITFG2, C12orf66, SZT2) (UniProt Q9Y664); test: anti-HA co-IP from HEK-293T cells, immunoblot
[20] = target: KICSTOR complex (Kaptin, ITFG2, C12orf66, SZT2) (UniProt Q9Y664); test: co-immunoprecipitation: anti-HA IP from transfected HEK-293T, with or without 100 µM SAM added to the immunoprecipitate, immunoblot for endogenous SZT2
[21] = target: GATOR1 complex (Depdc5, Npr13, Npr12) (UniProt O75140); test: anti-HA co-IP from HEK-293T cells, immunoblot, FIG. 3F
[22] = target: KICSTOR complex (Kaptin, ITFG2, C12orf66, SZT2) (UniProt Q9Y664); test: as above
[23] = target: GATOR1 complex (Depdc5, Npr13, Npr12) (UniProt O75140); test: co-immunoprecipitation: anti-HA IP from transfected HEK-293T, with or without 100 µM SAM added to the immunoprecipitate, immunoblot for endogenous Nprl3
[24] = target: GATOR1 complex (Depdc5, Npr13, Npr12) (UniProt O75140); test: anti-HA co-IP from HEK-293T cells, immunoblot, FIG. 4B
[25] = target: GATOR1 complex (Depdc5, Npr13, Npr12) (UniProt O75140); test: co-immunoprecipitation: anti-HA IP from HEK-293T expressing HA-SAMTOR, in RPMI, starved of methionine for 2 h, or restimulated with 100 µM methionine or 1 mM SAM; immunoblot for endogenous Nprl3
[26] = target: GATOR1-KICSTOR supercomplex (UniProt O75140); test: anti-HA co-IP from HEK-293T cells kept in RPMI, starved of methionine, or restimulated; immunoblot
[27] = target: GATOR1 complex (Depdc5, Npr13, Npr12) (UniProt O75140); test: anti-HA co-IP from HEK-293T cells, immunoblot; wild type is the reference
[28] = target: KICSTOR complex (Kaptin, ITFG2, C12orf66, SZT2) (UniProt Q9Y664); test: as above
[29] = target: GATOR1 complex (Depdc5, Npr13, Npr12) (UniProt O75140); test: anti-HA co-IP from HEK-293T cells, immunoblot, FIG. 3F; wild type is the reference
[30] = target: KICSTOR complex (Kaptin, ITFG2, C12orf66, SZT2) (UniProt Q9Y664); test: as above

Measured: binding

B1: SAMTOR (S-adenosylmethionine sensor upstream of mTORC1), endogenous protein in HEK-293T cells (protein, human, UniProt Q1RMZ1 1-405, looked up)
chain: MEPGAGGRNTARAQRAGSPNTPPPREQERKLEQEKLSGVVKSVHRRLRKKYREVGDFDKIWREHCEDEETLCEYAVAMKNLADNHWAKTCEGEGRIEWCCSVCREYFQNGGKRKALEKDEKRAVLATKTTPALNMHESSQLEGHLTNLSFTNPEFITELLQASGKIRLLDVGSCFNPFLKFEEFLTVGIDIVPAVESVYKCDFLNLQLQQPLQLAQDAIDAFLKQLKNPIDSLPGELFHVVVFSLLLSYFPSPYQRWICCKKAHELLVLNGLLLIITPDSSHQNRHAMMMKSWKIAIESLGFKRFKYSKFSHMHLMAFRKISLKTTSDLVSRNYPGMLYIPQDFNSIEDEEYSNPSCYVRSDIEDEQLAYGFTELPDAPYDSDSGESQASSIPFYELEDPILLLS
binds: [1] | [2] | [3] | [4] | [5] | [6] | [7] | [8] | [9] | [10]

B2: FLAG-SAMTOR (transiently expressed from pRK5) (protein, human, UniProt Q1RMZ1 1-405, looked up, not shown: small tags and cut ends)
chain: MEPGAGGRNTARAQRAGSPNTPPPREQERKLEQEKLSGVVKSVHRRLRKKYREVGDFDKIWREHCEDEETLCEYAVAMKNLADNHWAKTCEGEGRIEWCCSVCREYFQNGGKRKALEKDEKRAVLATKTTPALNMHESSQLEGHLTNLSFTNPEFITELLQASGKIRLLDVGSCFNPFLKFEEFLTVGIDIVPAVESVYKCDFLNLQLQQPLQLAQDAIDAFLKQLKNPIDSLPGELFHVVVFSLLLSYFPSPYQRWICCKKAHELLVLNGLLLIITPDSSHQNRHAMMMKSWKIAIESLGFKRFKYSKFSHMHLMAFRKISLKTTSDLVSRNYPGMLYIPQDFNSIEDEEYSNPSCYVRSDIEDEQLAYGFTELPDAPYDSDSGESQASSIPFYELEDPILLLS
binds: [11] | [12] | [13] | [14] | [15] | [16] | [17]

B3: HA-SAMTOR(G172A) (protein, human, UniProt Q1RMZ1 1-405, looked up, not shown: small tags and cut ends)
chain: MEPGAGGRNTARAQRAGSPNTPPPREQERKLEQEKLSGVVKSVHRRLRKKYREVGDFDKIWREHCEDEETLCEYAVAMKNLADNHWAKTCEGEGRIEWCCSVCREYFQNGGKRKALEKDEKRAVLATKTTPALNMHESSQLEGHLTNLSFTNPEFITELLQASGKIRLLDVASCFNPFLKFEEFLTVGIDIVPAVESVYKCDFLNLQLQQPLQLAQDAIDAFLKQLKNPIDSLPGELFHVVVFSLLLSYFPSPYQRWICCKKAHELLVLNGLLLIITPDSSHQNRHAMMMKSWKIAIESLGFKRFKYSKFSHMHLMAFRKISLKTTSDLVSRNYPGMLYIPQDFNSIEDEEYSNPSCYVRSDIEDEQLAYGFTELPDAPYDSDSGESQASSIPFYELEDPILLLS
binds: [18] | [19] | [20] | [21] | [22] | [23]

B4: HA-SAMTOR wild-type (transiently expressed from pRK5) (protein, human, UniProt Q1RMZ1 1-405, looked up, not shown: small tags and cut ends)
chain: MEPGAGGRNTARAQRAGSPNTPPPREQERKLEQEKLSGVVKSVHRRLRKKYREVGDFDKIWREHCEDEETLCEYAVAMKNLADNHWAKTCEGEGRIEWCCSVCREYFQNGGKRKALEKDEKRAVLATKTTPALNMHESSQLEGHLTNLSFTNPEFITELLQASGKIRLLDVGSCFNPFLKFEEFLTVGIDIVPAVESVYKCDFLNLQLQQPLQLAQDAIDAFLKQLKNPIDSLPGELFHVVVFSLLLSYFPSPYQRWICCKKAHELLVLNGLLLIITPDSSHQNRHAMMMKSWKIAIESLGFKRFKYSKFSHMHLMAFRKISLKTTSDLVSRNYPGMLYIPQDFNSIEDEEYSNPSCYVRSDIEDEQLAYGFTELPDAPYDSDSGESQASSIPFYELEDPILLLS
binds: [24] | [25] | [20] | [26] | [27] | [28] | [23] | [29] | [30]

B5: HA-SAMTOR(D190A) (protein, human, UniProt Q1RMZ1 1-405, looked up, not shown: small tags and cut ends)
chain: MEPGAGGRNTARAQRAGSPNTPPPREQERKLEQEKLSGVVKSVHRRLRKKYREVGDFDKIWREHCEDEETLCEYAVAMKNLADNHWAKTCEGEGRIEWCCSVCREYFQNGGKRKALEKDEKRAVLATKTTPALNMHESSQLEGHLTNLSFTNPEFITELLQASGKIRLLDVGSCFNPFLKFEEFLTVGIAIVPAVESVYKCDFLNLQLQQPLQLAQDAIDAFLKQLKNPIDSLPGELFHVVVFSLLLSYFPSPYQRWICCKKAHELLVLNGLLLIITPDSSHQNRHAMMMKSWKIAIESLGFKRFKYSKFSHMHLMAFRKISLKTTSDLVSRNYPGMLYIPQDFNSIEDEEYSNPSCYVRSDIEDEQLAYGFTELPDAPYDSDSGESQASSIPFYELEDPILLLS
binds: [18] | [19] | [20] | [21] | [22] | [23]
